Laboratory results reported in ChEMBL document CHEMBL1155219, “Rapid generation of a high quality lead for transforming growth factor-beta (TGF-beta) type I receptor (ALK5)” (J Med Chem, 2009).
≈ marks a conversion by molar mass, not a printed value.

Legend:
[1] = Aqueous solubility in phosphate buffer of pH 7.4
[2] = organism: Rattus norvegicus; conditions: Han Wistar, in vivo, po, 5 umol/kg
[3] = test system: Rattus norvegicus; experiment: Clearance in Han Wistar rat at 5 umol/kg, po; conditions: in vivo

`COc1cc(Nc2cc(Oc3cc(C)c(C)nc3-c3ccccn3)ccn2)cc(OC)c1OC` showed a solubility [1] of 52 µM (≈ 23.8 µg/mL), an AUC [2] of 0.15 µM·h and a CL [3] of 20 mL/min/kg.
